# These are yes or no findings as the source states them, for the method shown. In cells and extracts the contact can be indirect. Some results given as binding are weak or reduced against the parent protein; the word gives no strength.
# The chains behind the UniProt entries cited, without tags or fusion partners.
# UniProt O95793: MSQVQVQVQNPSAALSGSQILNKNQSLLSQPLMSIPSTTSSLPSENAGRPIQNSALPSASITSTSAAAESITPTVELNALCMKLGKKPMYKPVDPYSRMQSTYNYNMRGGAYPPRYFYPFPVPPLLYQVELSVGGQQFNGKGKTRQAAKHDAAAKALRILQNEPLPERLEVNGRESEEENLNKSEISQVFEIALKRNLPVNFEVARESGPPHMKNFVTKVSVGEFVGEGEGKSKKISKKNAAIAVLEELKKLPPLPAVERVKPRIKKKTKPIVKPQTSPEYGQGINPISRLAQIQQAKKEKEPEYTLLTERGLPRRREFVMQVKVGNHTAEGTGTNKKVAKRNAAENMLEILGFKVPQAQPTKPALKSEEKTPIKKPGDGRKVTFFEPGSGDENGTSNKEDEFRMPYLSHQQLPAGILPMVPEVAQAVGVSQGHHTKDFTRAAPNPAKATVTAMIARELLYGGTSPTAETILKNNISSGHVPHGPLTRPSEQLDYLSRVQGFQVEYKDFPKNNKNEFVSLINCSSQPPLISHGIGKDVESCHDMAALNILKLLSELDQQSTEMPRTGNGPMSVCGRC
# UniProt P38919: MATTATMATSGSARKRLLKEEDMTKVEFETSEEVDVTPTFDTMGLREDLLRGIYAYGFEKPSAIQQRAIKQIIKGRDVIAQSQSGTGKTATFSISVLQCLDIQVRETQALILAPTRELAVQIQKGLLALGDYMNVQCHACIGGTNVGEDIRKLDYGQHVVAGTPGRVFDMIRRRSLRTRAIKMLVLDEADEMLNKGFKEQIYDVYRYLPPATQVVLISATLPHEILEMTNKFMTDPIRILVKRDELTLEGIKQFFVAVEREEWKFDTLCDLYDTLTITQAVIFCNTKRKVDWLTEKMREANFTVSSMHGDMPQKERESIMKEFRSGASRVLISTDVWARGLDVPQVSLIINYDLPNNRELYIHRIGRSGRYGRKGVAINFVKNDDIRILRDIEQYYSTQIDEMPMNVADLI
# Columns and labels:
# [1] = molecular target: STAU1, endogenous (human (endogenous in HEK293T, KYSE150, HepG2)) (UniProt O95793); experiment: co-IP; endogenous proteins in HepG2 cells, with or without circ-231 knockdown; precipitating antibody not given
# [2] = molecular target: STAU1, endogenous (human (endogenous in HEK293T, KYSE150, HepG2)) (UniProt O95793); experiment: co-IP; endogenous proteins in HEK293T or KYSE150 lysate (50 mM Tris-HCl pH 7.5, 150 mM NaCl, 0.5% NP-40); IP with mouse anti-STAU1, protein A/G magnetic beads, eIF4A3 by western blot; cells with Scramble or circ-231 knockdown
# [3] = molecular target: HA-STAU1-wt (pcDNA3.1-HA-STAU1 full-length) (UniProt O95793); experiment: co-IP; HA-labeled full-length or deletion mutants of STAU1 transfected into HEK293T; IP with rabbit anti-HA, endogenous eIF4A3 detected by western blot
# [4] = molecular target: STAU1, endogenous (human (endogenous in HEK293T, KYSE150, HepG2)) (UniProt O95793); experiment: co-IP; endogenous proteins, cells after circ-231 knockdown; IP of STAU1, eIF4A3 by western blot
# [5] = molecular target: STAU1, endogenous (human (endogenous in HEK293T, KYSE150, HepG2)) (UniProt O95793); experiment: co-IP; Flag-labeled full-length or deletion mutants of eIF4A3 transfected into HEK293T; IP with mouse anti-STAU1 (endogenous STAU1), Flag detected by western blot
Substance,binding [1],binding [2],binding [3],binding [4],binding [5]
"Eukaryotic translation initiation factor 4A-III (eIF4A3), endogenous (from UniProt P38919 1-411)",binds,binds,binds,no binding (condition: after circ-231 knockdown),
Flag-eIF4A3-wt (pcDNA3.1-Flag-eIF4A3 full-length) (from UniProt P38919 1-411),,,,,binds
